Data as given in PubChem BioAssay AID1259300 (Sanger Institute, 2017)

Aim: 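Kinase and colorectal-mutated gene knock-downs lowering HCT15 viability or boosting drug effects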 (primary screen)
Cells: HCT15 colorectal cancer cells
Reagent: siRNA pool against human genes
Treatment: anchor drug or DMSO vehicle added 24 h after seeding: BYL719 1 µM, cetuximab 5 µg/ml, trametinib 10 nM; drug doses chosen to barely affect viability alone
Detection: 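Cell viability after knock-down, as fraction of non-targeting pool wells averaged over replicates, plus robust z-score for knock-down alone; synergy score per drug (BYL719 1 µM, cetuximab 5 µg/ml, trametinib 10 nM)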
Direction: viability z-score, siRNA alone: higher = more viable cells after knock-down; viability vs non-targeting, siRNA alone: higher = more viable cells; synergy score with BYL719 and synergy score with cetuximab and synergy score with trametinib: higher = stronger synergy of knock-down with drug
Hit rule: 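a knock-down without drug that drives the robust viability z-score under -3 is active, i.e. essential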
Meaning of the calls: active = essential: knock-down alone lowers viability (z below -3); inactive = no strong viability loss with knock-down alone
This is one part, drawn at random, of 794 reagents tested. Over the whole deposit, 18 (2.3%) were called active. 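Calls rest on knock-down alone, not drug synergy; depositor treated synergy scores above 0.15 as synergistic; drug doses alone had little viability effect.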 A number with no mark means an inactive call. Viability is capped at 1. Reagent sequences are not shown. Not given: the amount of reagent, the time to read-out.

| Gene | viability z-score, siRNA alone | viability vs non-targeting, siRNA alone | synergy score with BYL719 | synergy score with cetuximab | synergy score with trametinib |
| --- | --- | --- | --- | --- | --- |
| DYRK2 | 0.625 | 1 | 0.225 | 0.097 | 0.0451 |
| PRKCI | -0.298 | 0.933 | 0.205 | -0.0144 | 0.035 |
| CALM1 | 0.291 | 0.976 | 0.0694 | 0.065 | 0.0847 |
| ABL1 | 0.625 | 1 | 0.142 | 0.107 | 0.0163 |
| PRKAB2 | -1.74 | 0.828 | 0.112 | -0.0178 | -0.0951 |
| PAPSS1 | 0.625 | 1 | -0.00999 | 0 | -0.0984 |
| CDK17 | -0.968 | 0.884 | 0.148 | -0.116 | -0.162 |
| PAK2 | 0.0175 | 0.956 | 0.124 | 0.00481 | -0.0608 |
| CDK20 | -0.824 | 0.895 | 0.177 | -0.05 | 0.0014 |
| TSKS | -0.287 | 0.934 | -0.139 | 0.0176 | -0.145 |
| NTRK3 | 0.625 | 1 | 0.0172 | 0.0692 | -0.0984 |
| CSNK2A2 | 0.0146 | 0.956 | 0.193 | 0.0669 | -0.0384 |
| MAP3K20 | 0.625 | 1 | 0.0619 | 0.0225 | -0.0827 |
| LATS1 | 0.625 | 1 | 0.302 | 0.0866 | 0.0213 |
| WNK1 | 0.625 | 1 | 0.0696 | 0.065 | -0.0984 |
| CAMK1D | 0.127 | 0.964 | 0.0157 | 0.039 | -0.0295 |
| BRD3 | 0.625 | 1 | 0.266 | 0 | -0.0696 |
| RFK | -0.0346 | 0.952 | 0.2 | 0.0765 | -0.0192 |
| ARID1A | 0.625 | 1 | 0.215 | 0.218 | 0.142 |
| TLK2 | -0.368 | 0.928 | 0.0677 | -0.00148 | -0.163 |
| CDK13 | 0.625 | 1 | 0.2 | 0.0629 | 0.0188 |
| PRKD2 | -0.725 | 0.902 | 0.0765 | -0.0766 | -0.0168 |
| CHD9 | 0.459 | 0.988 | 0.179 | 0.0168 | 0.014 |
| MYH10 | 0.625 | 1 | 0.154 | 0.0712 | 0.0717 |
| CERK | 0.625 | 1 | 0.0602 | 0 | -0.0458 |
| ULK2 | -0.346 | 0.929 | 0.206 | 0.0756 | 0.0686 |
| IGF1R | 0.521 | 0.992 | 0.159 | 0.0223 | -0.036 |
| ROR1 | 0.625 | 1 | 0.143 | 0.19 | -0.0984 |
| AK1 | 0.625 | 1 | 0.113 | 0.0149 | -0.0693 |
| PIP5K1A | -1.72 | 0.83 | 0.0274 | -0.0624 | 0.0675 |
| IGF2R | 0.625 | 1 | -0.016 | 0 | 0.039 |
| NUAK2 | -0.494 | 0.919 | 0.225 | 0.137 | 0.074 |
| GUCY2D | -5.62 (active) | 0.546 | -0.0392 | 0.088 | -0.129 |
| EFNA5 | 0.625 | 1 | 0.264 | 0.037 | 0.0772 |

Active calls, among the entries above:
| Gene | viability z-score, siRNA alone | viability vs non-targeting, siRNA alone | synergy score with BYL719 | synergy score with cetuximab | synergy score with trametinib |
| --- | --- | --- | --- | --- | --- |
| GUCY2D | -5.62 (active) | 0.546 | -0.0392 | 0.088 | -0.129 |
